Reference: paper PMC5386496
These are yes or no findings as the source states them, for the method shown. Binding seen in cells or lysates may run through a third protein. Some entries that bind do so weakly or less than the wild type. For some of these results: Where a sequence is shown, tags or fusion partners need not be part of it. One block for each molecule: values may come before it.

Chains of the proteins cited; added tags and fusions are not shown.
UniProt P45973: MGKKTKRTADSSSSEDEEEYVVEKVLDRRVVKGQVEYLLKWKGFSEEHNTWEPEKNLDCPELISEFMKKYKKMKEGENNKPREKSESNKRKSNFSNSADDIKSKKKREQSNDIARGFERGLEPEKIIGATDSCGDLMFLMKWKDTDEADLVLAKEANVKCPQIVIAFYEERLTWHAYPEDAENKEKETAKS
UniProt Q9UPY3: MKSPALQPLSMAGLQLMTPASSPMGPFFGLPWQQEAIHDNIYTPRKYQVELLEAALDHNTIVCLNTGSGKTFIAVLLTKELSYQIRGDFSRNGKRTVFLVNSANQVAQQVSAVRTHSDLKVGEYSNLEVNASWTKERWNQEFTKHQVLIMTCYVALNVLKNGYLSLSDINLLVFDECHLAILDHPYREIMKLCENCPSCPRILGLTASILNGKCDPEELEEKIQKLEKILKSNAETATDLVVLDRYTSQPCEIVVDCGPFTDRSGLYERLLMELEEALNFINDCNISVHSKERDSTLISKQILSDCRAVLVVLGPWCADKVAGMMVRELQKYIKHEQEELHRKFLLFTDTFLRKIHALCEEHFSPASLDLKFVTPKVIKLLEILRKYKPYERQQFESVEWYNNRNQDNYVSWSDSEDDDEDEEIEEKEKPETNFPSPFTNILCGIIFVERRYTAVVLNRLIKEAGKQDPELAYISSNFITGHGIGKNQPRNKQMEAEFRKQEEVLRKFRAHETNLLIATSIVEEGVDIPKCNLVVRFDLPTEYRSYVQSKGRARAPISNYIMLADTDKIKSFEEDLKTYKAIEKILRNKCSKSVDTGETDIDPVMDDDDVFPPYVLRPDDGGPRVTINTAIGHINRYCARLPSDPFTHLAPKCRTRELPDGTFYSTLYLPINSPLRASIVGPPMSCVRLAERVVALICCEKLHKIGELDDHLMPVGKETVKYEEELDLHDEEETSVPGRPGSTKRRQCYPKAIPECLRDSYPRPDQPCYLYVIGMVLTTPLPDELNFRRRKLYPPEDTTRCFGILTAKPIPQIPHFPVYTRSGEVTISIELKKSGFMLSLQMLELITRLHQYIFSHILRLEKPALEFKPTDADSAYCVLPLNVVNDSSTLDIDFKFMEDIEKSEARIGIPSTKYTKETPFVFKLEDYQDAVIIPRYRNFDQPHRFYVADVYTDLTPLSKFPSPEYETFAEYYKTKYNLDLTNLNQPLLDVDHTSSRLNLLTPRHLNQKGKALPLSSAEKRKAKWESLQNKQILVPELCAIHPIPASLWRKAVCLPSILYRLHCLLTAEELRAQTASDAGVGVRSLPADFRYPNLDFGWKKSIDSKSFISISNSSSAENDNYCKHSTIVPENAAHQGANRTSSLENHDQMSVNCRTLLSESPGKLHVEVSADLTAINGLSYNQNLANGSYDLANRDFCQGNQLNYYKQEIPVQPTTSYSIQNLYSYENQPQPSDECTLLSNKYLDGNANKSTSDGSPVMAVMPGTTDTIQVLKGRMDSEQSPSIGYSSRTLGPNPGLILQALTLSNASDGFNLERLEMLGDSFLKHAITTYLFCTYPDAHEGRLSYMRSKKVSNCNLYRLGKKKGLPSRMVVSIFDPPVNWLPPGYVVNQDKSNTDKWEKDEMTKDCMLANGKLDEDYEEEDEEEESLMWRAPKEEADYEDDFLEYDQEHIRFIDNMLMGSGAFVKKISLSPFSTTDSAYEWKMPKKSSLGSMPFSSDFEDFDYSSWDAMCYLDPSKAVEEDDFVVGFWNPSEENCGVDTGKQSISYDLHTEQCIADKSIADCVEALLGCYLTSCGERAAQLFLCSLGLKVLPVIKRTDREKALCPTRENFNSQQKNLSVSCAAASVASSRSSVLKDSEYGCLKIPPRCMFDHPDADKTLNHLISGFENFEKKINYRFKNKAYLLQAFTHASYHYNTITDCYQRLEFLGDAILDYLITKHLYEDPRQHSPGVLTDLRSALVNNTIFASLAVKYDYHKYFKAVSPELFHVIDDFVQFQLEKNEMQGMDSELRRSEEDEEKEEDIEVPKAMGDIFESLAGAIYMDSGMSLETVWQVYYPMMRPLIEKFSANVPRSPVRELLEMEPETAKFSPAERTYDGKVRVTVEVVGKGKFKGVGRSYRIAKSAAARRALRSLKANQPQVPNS

Columns and labels:
[1] = biological target: GST-HP1α fusion protein (heterochromatin protein 1α) (UniProt P45973); test: pull-down; GST fusion protein held on glutathione-Sepharose 4B beads, HEK293 cell extracts added, treated with RNase A, 3 h under rotation at 4 °C, washed with ice-cold PBS, western blot with anti-Dicer (or anti-HP1α); only the target purified
[2] = biological target: heterochromatin protein 1α (HP1α), endogenous in Hucct1 cells (human (endogenous in Hucct1)) (UniProt P45973); test: co-IP; nuclear extracts of Hucct1 cells, endogenous proteins, anti-HP1α (or anti-Dicer) antibodies, western blot; IgG as control
GST-Dicer fusion protein = GST-Dicer fusion protein (UniProt Q9UPY3); test: pull-down; GST fusion protein held on glutathione-Sepharose 4B beads, HEK293 cell extracts added, treated with RNase A, 3 h under rotation at 4 °C, washed with ice-cold PBS, western blot with anti-Dicer (or anti-HP1α); only the target purified
[3] = biological target: heterochromatin protein 1α (HP1α), endogenous in Hucct1 cells (human (endogenous in Hucct1)) (UniProt P45973); test: co-IP; Hucct1 cells, endogenous proteins, 2.5 μg anti-HP1α antibodies and Protein A+G Agarose beads, western blot with anti-Dnmt1, anti-Dnmt3a, anti-Dnmt3b, anti-SUV39H1 and anti-H3K9me3; IgG as control

Molecule: Dicer, endogenous in Hucct1 cells (from UniProt Q9UPY3 1-1922)
binding [2]: binds

B1: histone methyltransferase SUV39H1, endogenous in Hucct1 cells (enzyme, UniProt O43463 1-412)
chain: MAENLKGCSVCCKSSWNQLQDLCRLAKLSCPALGISKRNLYDFEVEYLCDYKKIREQEYYLVKWRGYPDSESTWEPRQNLKCVRILKQFHKDLERELLRRHHRSKTPRHLDPSLANYLVQKAKQRRALRRWEQELNAKRSHLGRITVENEVDLDGPPRAFVYINEYRVGEGITLNQVAVGCECQDCLWAPTGGCCPGASLHKFAYNDQGQVRLRAGLPIYECNSRCRCGYDCPNRVVQKGIRYDLCIFRTDDGRGWGVRTLEKIRKNSFVMEYVGEIITSEEAERRGQIYDRQGATYLFDLDYVEDVYTVDAAYYGNISHFVNHSCDPNLQVYNVFIDNLDERLPRIAFFATRTIRAGEELTFDYNMQVDPVDMESTRMDSNFGLAGLPGSPKKRVRIECKCGTESCRKYLF
binding [3]: binds

The remaining lines, values ahead:

binding [1]: binds
Molecule: Dicer, endogenous in HEK293 cells (from UniProt Q9UPY3 1-1922)

binding (GST-Dicer fusion protein): binds
Molecule: heterochromatin protein 1α (HP1α), endogenous in HEK293 cells (from UniProt P45973 1-191)
